Values from PubChem BioAssay AID1508597 (Cure First, 2020).
Test: 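Knock-downs altering ovarian cancer cell survival with or without PARP inhibitor rucaparib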 (primary screen). Cells: human ovarian carcinoma lines grown from tumours: OCI-P5x (papillary serous) and OCI-C5x (clear cell). Knock-down reagent: siRNA pool against human genes, 1.25 pmol siRNA per well. Duration: 72 h or 96 h, depending on the cell culture. Challenge: rucaparib 20 µM (about IC30) or vehicle, present until read-out. Rucaparib or vehicle: Vehicle. Cell line: OCI-P5x (serous). Measured: 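Luminescent ATP-based viability assay read 72 or 96 h after transfection, depending on culture, given as normalised percent viability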. Reading the numbers: viability, normalised: higher = more viable cells remaining. Rule for the call: 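Active when normalised viability falls below 80 percent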. Calls: active = viability under 80%; inactive = viability 80% or more.
Shown is an unselected part of the about 2,100 reagents, in one setting of the screen. 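Calls flag viability under 80% in either arm, not effects specific to rucaparib; the reference for percent is not stated.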 A number with no mark means an inactive call. A reagent listed more than once was tested more than once; the source does not tell the runs apart. Not given: the 100% reference.

gene	technical replicate	viability, normalised (%)
CHAF1B	1	60.3 (active)
CHAF1B	1	78.8 (active)
CHAF1B	2	85.8
CHAF1B	2	64 (active)
CHAF1B	3	61.5 (active)
CHAF1B	3	58.9 (active)
AK4	1	68.2 (active)
AK4	2	71.5 (active)
AK4	3	77.5 (active)
RAD21	1	58 (active)
RAD21	1	58.3 (active)
RAD21	2	48.5 (active)
RAD21	2	78.6 (active)
RAD21	3	71.9 (active)
RAD21	3	54.9 (active)
DPH3	1	35.7 (active)
DPH3	2	41.9 (active)
DPH3	3	39.8 (active)
NCOA5	1	42.8 (active)
NCOA5	2	50.3 (active)
NCOA5	3	62.9 (active)
CYLD	1	68.7 (active)
CYLD	2	81.3
CYLD	3	77.9 (active)
IKBKE	1	54 (active)
IKBKE	2	59.4 (active)
IKBKE	3	63.9 (active)
ING5	1	68 (active)
ING5	2	80.2
ING5	3	70.2 (active)
CDKL5	1	99.8
CDKL5	2	90.5
CDKL5	3	92.2
PDE8B	1	58.1 (active)
PDE8B	2	64.4 (active)
PDE8B	3	65.7 (active)
MINK1	1	71.6 (active)
MINK1	2	62.7 (active)
MINK1	3	55.6 (active)

Next part, starting with the last 8 of the part before.
gene	technical replicate	viability, normalised (%)
CDKL5	2	90.5
CDKL5	3	92.2
PDE8B	1	58.1 (active)
PDE8B	2	64.4 (active)
PDE8B	3	65.7 (active)
MINK1	1	71.6 (active)
MINK1	2	62.7 (active)
MINK1	3	55.6 (active)
EPHA3	1	80.5
EPHA3	2	59.2 (active)
EPHA3	3	61.2 (active)
NPR2	1	93.4
NPR2	2	78.5 (active)
NPR2	3	75.6 (active)
RAB32	1	88.8
RAB32	2	78 (active)
RAB32	3	72.9 (active)
HSPA5	1	70.2 (active)
HSPA5	2	65.6 (active)
HSPA5	3	74 (active)
BRCC3	1	80.8
BRCC3	1	71.1 (active)
BRCC3	2	67.2 (active)
BRCC3	2	51 (active)
BRCC3	3	86.9
BRCC3	3	77.4 (active)
SMC1B	1	49.5 (active)
SMC1B	2	49.1 (active)
SMC1B	3	62.1 (active)
RNF8	1	61.9 (active)
RNF8	1	39.2 (active)
RNF8	2	46.6 (active)
RNF8	2	54.4 (active)
RNF8	3	55.1 (active)
RNF8	3	68.5 (active)
CAMK1G	1	77.3 (active)
CAMK1G	1	77.4 (active)
CAMK1G	2	77.4 (active)
CAMK1G	2	68.2 (active)
CAMK1G	3	71 (active)
CAMK1G	3	94.1
CD40LG	1	75 (active)
CD40LG	2	98.3
CD40LG	3	90
